Earlier results in patent publication US10300299B2, “Advanced methods and systems for treating cell proliferation disorders” (priority 2008, dated 2019).
For at least one compound, name, drawing or mass did not settle the structure.

Settings: 652 nm light, clinical studies

Oc1cccc(-c2c3nc(c(-c4cccc(O)c4)c4ccc([nH]4)c(-c4cccc(O)c4)c4nc(c(-c5cccc(O)c5)c5ccc2[nH]5)CC4)C=C3)c1 [Foscan, Tetra (m-hydroxyphenyl) chlorin]
tissue effect: up to 10 mm
